These are yes or no findings as the source states them, for the method shown. Binding seen in cells or lysates may run through a third protein. Some binding calls cover weakened binding; strength is not graded here.
Tests used:
[1] = target: GST-cortactin SH3 domain (mouse) (UniProt Q60598); assay: pull-down; GST-SH3 or GST on GSH-beads added to 200 µl RIPA lysate of HeLa cells kept in suspension or spread 3 h on fibronectin; 3 h at 4°C; WB with FAK Ab; only the target purified
[2] = target: GST-cortactin SH3 domain (mouse) (UniProt Q60598); assay: pull-down; GST-SH3 with Rsrc cell lysates; data not shown; only the target purified

Chains of the proteins cited; added tags and fusions are not shown. Residues count along the entry.
UniProt Q60598, residues 488-546: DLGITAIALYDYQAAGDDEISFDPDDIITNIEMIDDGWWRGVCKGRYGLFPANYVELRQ
UniProt Q05397: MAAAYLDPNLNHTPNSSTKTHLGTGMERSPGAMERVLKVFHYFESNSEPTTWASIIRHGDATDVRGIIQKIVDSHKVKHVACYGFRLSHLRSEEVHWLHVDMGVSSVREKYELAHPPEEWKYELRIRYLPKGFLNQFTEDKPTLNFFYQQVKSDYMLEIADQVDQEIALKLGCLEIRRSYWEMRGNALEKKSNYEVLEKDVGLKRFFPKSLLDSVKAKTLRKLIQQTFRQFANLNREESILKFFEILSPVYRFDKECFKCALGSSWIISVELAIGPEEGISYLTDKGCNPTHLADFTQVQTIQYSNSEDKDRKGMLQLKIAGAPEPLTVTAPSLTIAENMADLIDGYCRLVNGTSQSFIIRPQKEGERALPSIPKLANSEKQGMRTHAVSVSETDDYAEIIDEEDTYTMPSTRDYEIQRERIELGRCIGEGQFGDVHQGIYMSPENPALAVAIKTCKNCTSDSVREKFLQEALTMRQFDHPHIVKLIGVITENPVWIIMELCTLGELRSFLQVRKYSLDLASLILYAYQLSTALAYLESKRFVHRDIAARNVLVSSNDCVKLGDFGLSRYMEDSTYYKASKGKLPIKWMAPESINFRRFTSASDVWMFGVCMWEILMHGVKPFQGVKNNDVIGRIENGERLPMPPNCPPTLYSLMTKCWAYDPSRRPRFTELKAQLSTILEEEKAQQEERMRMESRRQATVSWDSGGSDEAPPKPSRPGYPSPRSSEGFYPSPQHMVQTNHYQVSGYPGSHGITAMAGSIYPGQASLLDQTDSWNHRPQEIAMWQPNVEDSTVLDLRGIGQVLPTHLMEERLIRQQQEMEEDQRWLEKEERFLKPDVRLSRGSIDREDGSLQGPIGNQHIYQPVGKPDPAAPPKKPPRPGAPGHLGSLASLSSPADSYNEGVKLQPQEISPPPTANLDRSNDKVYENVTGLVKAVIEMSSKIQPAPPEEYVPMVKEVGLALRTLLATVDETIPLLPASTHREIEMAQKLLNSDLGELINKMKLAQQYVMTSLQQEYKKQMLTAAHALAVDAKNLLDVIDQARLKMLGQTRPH
UniProt P34152: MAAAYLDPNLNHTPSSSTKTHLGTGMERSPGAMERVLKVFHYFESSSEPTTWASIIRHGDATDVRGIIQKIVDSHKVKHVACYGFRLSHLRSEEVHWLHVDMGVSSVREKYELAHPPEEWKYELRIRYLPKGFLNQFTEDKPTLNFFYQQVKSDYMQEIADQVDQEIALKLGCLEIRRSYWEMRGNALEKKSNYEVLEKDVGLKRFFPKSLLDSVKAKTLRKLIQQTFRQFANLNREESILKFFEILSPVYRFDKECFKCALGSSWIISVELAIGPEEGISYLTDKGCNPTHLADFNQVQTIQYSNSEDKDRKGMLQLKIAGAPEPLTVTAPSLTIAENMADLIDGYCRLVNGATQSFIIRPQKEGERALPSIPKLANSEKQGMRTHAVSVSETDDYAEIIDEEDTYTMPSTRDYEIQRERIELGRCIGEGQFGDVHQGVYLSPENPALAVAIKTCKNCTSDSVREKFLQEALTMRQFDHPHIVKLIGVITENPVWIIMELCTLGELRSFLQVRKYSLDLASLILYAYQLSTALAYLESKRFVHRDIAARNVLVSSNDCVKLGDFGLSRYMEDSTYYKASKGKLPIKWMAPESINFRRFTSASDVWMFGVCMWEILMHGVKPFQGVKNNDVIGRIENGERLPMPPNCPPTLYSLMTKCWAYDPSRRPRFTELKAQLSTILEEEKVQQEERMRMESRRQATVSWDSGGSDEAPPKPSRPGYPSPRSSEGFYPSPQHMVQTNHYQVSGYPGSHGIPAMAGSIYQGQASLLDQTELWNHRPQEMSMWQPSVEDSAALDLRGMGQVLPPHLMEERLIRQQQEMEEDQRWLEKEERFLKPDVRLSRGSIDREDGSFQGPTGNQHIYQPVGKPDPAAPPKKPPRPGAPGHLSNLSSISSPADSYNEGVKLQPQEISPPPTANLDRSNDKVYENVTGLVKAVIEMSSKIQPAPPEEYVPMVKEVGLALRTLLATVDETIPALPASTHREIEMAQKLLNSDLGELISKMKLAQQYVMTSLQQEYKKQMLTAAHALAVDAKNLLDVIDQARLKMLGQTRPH

Substance	binding [1]	binding [2]
focal adhesion kinase (FAK) (from UniProt Q05397 1-1052)	binds	–
focal adhesion kinase (FAK) of Rsrc cells (from UniProt P34152 1-1052)	–	binds
